Some of these results come from one statement about several compounds together. Some ranges recur; such a range may be that of the whole group of compounds.
experiment: In vitro release of risperidone from devices loaded with various risperidone addition salts (Example 5); format: physicochemical; conditions: device in 100 mL PBS at 37° C.; risperidone salt with two-fold molar excess of acid

Cumulative in vitro release of risperidone after 15 days (percent of total loaded drug), 40-60%:
Nc1ccc(C(=O)O)cc1 [PABA, 4-aminobenzoic acid]
O=C(O)CCCCCCCCC(=O)O [Sebacic acid, sebacic acid]
COc1cc(C(=O)O)ccc1O [Vinallic acid, vanillic acid]

Reference: patent publication US20250009886A1, “COMPOSITIONS FOR SMALL MOLECULE THERAPEUTIC AGENT COMPOUNDS” (Delpor, Inc., priority 2016, published 2025)
